# Measurements as given in patent EP2737897A2, “Anti-inflammatory botanical products for the treatment of metabolic syndrome and diabetes” (Metaproteomics, LLC, priority 2005, dated 2007).
# At least one compound was matched to its structure with a doubt left.
# System: NF-κB
# Assay: NF-κB DNA binding of nuclear extracts of LPS-stimulated RAW 264.7 cells, TransAM NF-κB kit (Example 9)
# Format: cell-based, murine
# Conditions: MgRIAA 55 and 14 µg/ml, parthenolide 80 µM, LY294002 25 µM; LPS 1 µg/ml 4 h
structure (smiles),measurement,value
O=c1cc(N2CCOCC2)oc2c(-c3ccccc3)cccc12 [LY294002],NF-κB DNA binding,modest decrease
